# Data: the supplement of paper PMC8728848
# This is one part of the list.
# B1: DC-Sign-R (Homo sapiens), Q9H2X3 (protein)
# chain: MSDSKEPRVQQLGLLEEDPTTSGIRLFPRDFQFQQIHGHKSSTGCLGHGALVLQLLSFMLLAGVLVAILVQVSKVPSSLSQEQSEQDAIYQNLTQLKAAVGELSEKSKLQEIYQELTQLKAAVGELPEKSKLQEIYQELTRLKAAVGELPEKSKLQEIYQELTRLKAAVGELPEKSKLQEIYQELTRLKAAVGELPEKSKLQEIYQELTELKAAVGELPEKSKLQEIYQELTQLKAAVGELPDQSKQQQIYQELTDLKTAFERLCRHCPKDWTFFQGNCYFMSNSQRNWHDSVTACQEVRAQLVVIKTAEEQNFLQLQTSRSNRFSWMGLSDLNQEGTWQWVDGSPLSPSFQRYWNSGEPNNSGNEDCAEFSGSGWNDNRCDVDNYWICKKPAACFRDE
# Assays:
# Assay in all cases: glycan array binding signal (z-score within array); higher = stronger binding
# Conditions in all cases: glycan notation: IUPAC condensed, linker removed
# [1] = target: Gal(b1-3)GlcNAc(b1-3)Gal(b1-4)GlcNAc(b1-2)Man(a1-3)[Gal(b1-3)GlcNAc(b1-3)Gal(b1-4)GlcNAc(b1-2)Man(a1-6)]Man(b1-4)GlcNAc(b1-4)GlcNAc
# Summary of the method: (§1)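 Columns mapping to the same glycan were averaged after glycan names were converted to IUPAC-condensed notation. The data come from 3228 arrays in the Consortium for Functional Glycomics database, limited to those with an available protein sequence. Binding is reported as a within-array Z-score averaged across arrays of one protein sequence and across linkers.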
# [2] = target: Gal(b1-3)GlcNAc(b1-3)Gal(b1-4)GlcNAc(b1-2)[Gal(b1-3)GlcNAc(b1-3)Gal(b1-4)GlcNAc(b1-6)]Man(a1-6)[Gal(b1-3)GlcNAc(b1-3)Gal(b1-4)GlcNAc(b1-2)Man(a1-3)]Man(b1-4)GlcNAc(b1-4)[Fuc(a1-6)]GlcNAc
# Summary of the method: as §1
# [3] = target: Gal(b1-3)GlcNAc(b1-3)Gal(b1-4)GlcNAc(b1-3)Gal(b1-4)GlcNAc(b1-2)[Gal(b1-3)GlcNAc(b1-3)Gal(b1-4)GlcNAc(b1-3)Gal(b1-4)GlcNAc(b1-6)]Man(a1-6)[Gal(b1-3)GlcNAc(b1-3)Gal(b1-4)GlcNAc(b1-3)Gal(b1-4)GlcNAc(b1-2)Man(a1-3)]Man(b1-4)GlcNAc(b1-4)[Fuc(a1-6)]GlcNAc
# Summary of the method: as §1
# [4] = target: Gal(b1-3)GlcNAc(b1-3)Gal(b1-4)GlcNAc(b1-6)[Gal(b1-3)GlcNAc(b1-3)]Gal(b1-4)Glc
# Summary of the method: as §1
# [5] = target: Gal(b1-3)GlcNAc(b1-3)Gal(b1-4)[Fuc(a1-3)]GlcNAc
# Summary of the method: as §1
# [6] = target: Gal(b1-3)GlcNAc(b1-3)Gal(b1-4)[Fuc(a1-3)]GlcNAc(b1-6)[Gal(b1-3)GlcNAc(b1-3)]Gal(b1-4)Glc
# Summary of the method: as §1
# [7] = target: Gal(b1-3)GlcNAc(b1-3)GalNAc
# Summary of the method: as §1
# [8] = target: Gal(b1-3)GlcNAc(b1-6)Gal(b1-4)GlcNAc
# Summary of the method: as §1
# [9] = target: Gal(b1-3)GlcNAc(b1-6)GalNAc
# Summary of the method: as §1
# [10] = target: Gal(b1-3)GlcNAc(b1-6)[Gal(b1-3)]GalNAc
# Summary of the method: as §1
# [11] = target: Gal(b1-3)GlcNAc6S
# Summary of the method: as §1
# [12] = target: Gal(b1-3)[Fuc(a1-4)]GlcNAc
# Summary of the method: as §1
# [13] = target: Gal(b1-3)[Fuc(a1-4)]GlcNAc(b1-2)Man
# Summary of the method: as §1
# [14] = target: Gal(b1-3)[Fuc(a1-4)]GlcNAc(b1-2)Man(a1-3)[Gal(b1-3)[Fuc(a1-4)]GlcNAc(b1-2)Man(a1-6)]Man(b1-4)GlcNAc(b1-4)[Fuc(a1-6)]GlcNAc
# Summary of the method: as §1
# [15] = target: Gal(b1-3)[Fuc(a1-4)]GlcNAc(b1-3)Gal(b1-3)[Fuc(a1-4)]GlcNAc
# Summary of the method: as §1
# [16] = target: Gal(b1-3)[Fuc(a1-4)]GlcNAc(b1-3)Gal(b1-4)[Fuc(a1-3)]GlcNAc
# Summary of the method: as §1
# [17] = target: Gal(b1-3)[Fuc(a1-4)]GlcNAc(b1-6)GalNAc
# Summary of the method: as §1
# [18] = target: Gal(b1-3)[GlcNAc(b1-6)]GalNAc
# Summary of the method: as §1
# [19] = target: Gal(b1-3)[Neu5Ac(a2-6)]GalNAc
# Summary of the method: as §1
# [20] = target: Gal(b1-3)[Neu5Ac(a2-6)]GlcNAc(b1-4)Gal(b1-4)Glc
# Summary of the method: as §1
# [21] = target: Gal(b1-3)[Neu5Ac(b2-6)]GalNAc
# Summary of the method: as §1
# [22] = target: Gal(b1-4)Gal
# Summary of the method: as §1
# [23] = target: Gal(b1-4)GalNAc(a1-3)[Fuc(a1-2)]Gal(b1-4)GlcNAc
# Summary of the method: as §1
# [24] = target: Gal(b1-4)GalNAc(b1-3)[Fuc(a1-2)]Gal(b1-4)GlcNAc
# Summary of the method: as §1
# [25] = target: Gal(b1-4)Glc
# Summary of the method: as §1
# [26] = target: Gal(b1-4)Glc6S
# Summary of the method: as §1
# [27] = target: Gal(b1-4)GlcNAc
# Summary of the method: as §1
# [28] = target: Gal(b1-4)GlcNAc(a1-6)Gal(b1-4)GlcNAc
# Summary of the method: as §1
# [29] = target: Gal(b1-4)GlcNAc(b1-2)Man
# Summary of the method: as §1
# [30] = target: Gal(b1-4)GlcNAc(b1-2)Man(a1-3)Man(b1-4)GlcNAc(b1-4)GlcNAc
# Summary of the method: as §1
# [31] = target: Gal(b1-4)GlcNAc(b1-2)Man(a1-3)[Gal(b1-4)GlcNAc(b1-2)Man(a1-6)]Man(b1-4)GlcNAc(b1-4)GlcNAc
# Summary of the method: as §1
# [32] = target: Gal(b1-4)GlcNAc(b1-2)Man(a1-3)[Gal(b1-4)GlcNAc(b1-2)Man(a1-6)]Man(b1-4)GlcNAc(b1-4)[Fuc(a1-6)]GlcNAc
# Summary of the method: as §1
# [33] = target: Gal(b1-4)GlcNAc(b1-2)Man(a1-3)[Gal(b1-4)GlcNAc(b1-2)Man(a1-6)][Gal(b1-4)GlcNAc(b1-4)]Man(b1-4)GlcNAc(b1-4)[Fuc(a1-6)]GlcNAc
# Summary of the method: as §1
# [34] = target: Gal(b1-4)GlcNAc(b1-2)Man(a1-3)[Gal(b1-4)GlcNAc(b1-2)Man(a1-6)][GlcNAc(b1-4)]Man(b1-4)GlcNAc(b1-4)[Fuc(a1-6)]GlcNAc
# Summary of the method: as §1
# [35] = target: Gal(b1-4)GlcNAc(b1-2)Man(a1-3)[GlcNAc(b1-2)Man(a1-6)]Man(b1-4)GlcNAc(b1-4)GlcNAc
# Summary of the method: as §1
# [36] = target: Gal(b1-4)GlcNAc(b1-2)Man(a1-3)[GlcNAc(b1-4)][Gal(b1-4)GlcNAc(b1-2)Man(a1-6)]Man(b1-4)GlcNAc(b1-4)GlcNAc
# Summary of the method: as §1
# [37] = target: Gal(b1-4)GlcNAc(b1-2)Man(a1-3)[Man(a1-6)]Man(b1-4)GlcNAc(b1-4)GlcNAc
# Summary of the method: as §1
# [38] = target: Gal(b1-4)GlcNAc(b1-2)Man(a1-6)Man(b1-4)GlcNAc(b1-4)GlcNAc
# Summary of the method: as §1
binder,measurement,setting,value
B1,glycan array binding signal (z-score),[1],2.06
same,glycan array binding signal (z-score),[2],0.067
same,glycan array binding signal (z-score),[3],2.5
same,glycan array binding signal (z-score),[4],-0.833
same,glycan array binding signal (z-score),[5],0.359
same,glycan array binding signal (z-score),[6],-0.046
same,glycan array binding signal (z-score),[7],0.359
same,glycan array binding signal (z-score),[8],-0.502
same,glycan array binding signal (z-score),[9],-0.046
same,glycan array binding signal (z-score),[10],0.254
same,glycan array binding signal (z-score),[11],1.41
same,glycan array binding signal (z-score),[12],-0.401
same,glycan array binding signal (z-score),[13],-0.259
same,glycan array binding signal (z-score),[14],-0.738
same,glycan array binding signal (z-score),[15],-0.526
same,glycan array binding signal (z-score),[16],-0.37
same,glycan array binding signal (z-score),[17],0.082
same,glycan array binding signal (z-score),[18],-0.257
same,glycan array binding signal (z-score),[19],-0.403
same,glycan array binding signal (z-score),[20],-0.679
same,glycan array binding signal (z-score),[21],0.069
same,glycan array binding signal (z-score),[22],-0.828
same,glycan array binding signal (z-score),[23],-0.269
same,glycan array binding signal (z-score),[24],-0.569
same,glycan array binding signal (z-score),[25],-0.717
same,glycan array binding signal (z-score),[26],-0.834
same,glycan array binding signal (z-score),[27],-0.167
same,glycan array binding signal (z-score),[28],0.095
same,glycan array binding signal (z-score),[29],0.1
same,glycan array binding signal (z-score),[30],0.931
same,glycan array binding signal (z-score),[31],-0.333
same,glycan array binding signal (z-score),[32],-0.832
same,glycan array binding signal (z-score),[33],0.82
same,glycan array binding signal (z-score),[34],-0.304
same,glycan array binding signal (z-score),[35],2.15
same,glycan array binding signal (z-score),[36],-0.292
same,glycan array binding signal (z-score),[37],1.29
same,glycan array binding signal (z-score),[38],1.69

# In another format: entries from further up
binder	measurement	setting	value
B1	glycan array binding signal (z-score)	[32]	-0.832
same	glycan array binding signal (z-score)	[33]	0.82
